Paper PMC10879784
No constants are given. Whether binding was seen depends on the method and setting. In cells and extracts the contact can be indirect. Here binding means that the protein was enriched with, or labelled near, the bait; the list need not be complete. Where a sequence is shown, tags or fusion partners need not be part of it. Blank lines part the entries; values can stand above or below the binder they belong to.

Key:
[1] = target: T1, GFP-AGO1 (ARGONAUTE1, Arabidopsis thaliana) (Arabidopsis thaliana) (UniProt O04379); test: affinity purification with mass spectrometry; GFP-AGO1 immunoprecipitated with magnetic microbeads coupled to GFP antibodies (μMACS GFP Isolation Kit) from 7-day-old pAGO1:GFP-AGO1 ago1-27 seedlings after 1 h HS at 37°C; lysis buffer 50mM Tris-HCl pH7,5, 50mM NaCl, 0,25% IGEPAL CA-630, 2mM MgCl2, 5mM DTT; control IPs in Col-0 and the p35S:GFP-3Flag line; nanoLC-MS/MS
T1 sequence: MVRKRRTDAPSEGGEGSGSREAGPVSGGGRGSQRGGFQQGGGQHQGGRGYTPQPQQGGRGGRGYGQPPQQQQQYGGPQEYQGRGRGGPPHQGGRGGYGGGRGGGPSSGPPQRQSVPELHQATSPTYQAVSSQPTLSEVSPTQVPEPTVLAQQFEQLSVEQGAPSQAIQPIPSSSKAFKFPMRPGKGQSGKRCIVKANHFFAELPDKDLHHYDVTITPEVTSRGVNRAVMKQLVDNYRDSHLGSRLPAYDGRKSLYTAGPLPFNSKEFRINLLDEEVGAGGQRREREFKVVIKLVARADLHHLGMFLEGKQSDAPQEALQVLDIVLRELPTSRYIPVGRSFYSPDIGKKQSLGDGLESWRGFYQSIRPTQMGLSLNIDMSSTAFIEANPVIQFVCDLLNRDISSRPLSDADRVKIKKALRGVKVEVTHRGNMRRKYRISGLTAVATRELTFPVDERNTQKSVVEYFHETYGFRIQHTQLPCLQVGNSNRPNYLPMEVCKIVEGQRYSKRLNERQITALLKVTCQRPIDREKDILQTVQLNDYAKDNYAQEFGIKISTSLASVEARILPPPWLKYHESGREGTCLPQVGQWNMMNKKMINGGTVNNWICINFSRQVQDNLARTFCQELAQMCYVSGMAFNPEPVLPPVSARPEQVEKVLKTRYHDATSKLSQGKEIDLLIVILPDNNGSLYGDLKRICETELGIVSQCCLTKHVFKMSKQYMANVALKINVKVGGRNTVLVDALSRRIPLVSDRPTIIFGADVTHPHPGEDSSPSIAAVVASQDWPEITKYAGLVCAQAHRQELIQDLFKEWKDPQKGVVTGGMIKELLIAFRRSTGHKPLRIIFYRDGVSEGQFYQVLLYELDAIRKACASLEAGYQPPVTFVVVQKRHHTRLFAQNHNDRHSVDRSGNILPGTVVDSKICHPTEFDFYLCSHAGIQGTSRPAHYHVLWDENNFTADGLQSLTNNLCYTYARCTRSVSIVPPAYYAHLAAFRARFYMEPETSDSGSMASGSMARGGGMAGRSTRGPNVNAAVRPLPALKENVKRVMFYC

[2] = target: T2, GFP-AGO1 (ARGONAUTE1, Arabidopsis thaliana) (Arabidopsis thaliana), O04379; test: as above; settings: remark: other sources report otherwise
T2 chain: T1 sequence

binding [1]: binds
B1: RNA helicase RH8 (protein, UniProt Q8RXK6 1-505)
chain: MNNRGRYPPGIGAGRGAFNPNPNYQSRSGYQQHPPPQYVQRGNYAQNHQQQFQQAPSQPHQYQQQQQQQQQWLRRGQIPGGNSNGDAVVEVEKTVQSEVIDPNSEDWKARLKLPAPDTRYRTEDVTATKGNEFEDYFLKRELLMGIYEKGFERPSPIQEESIPIALTGRDILARAKNGTGKTAAFCIPVLEKIDQDNNVIQAVIIVPTRELALQTSQVCKELGKHLKIQVMVTTGGTSLKDDIMRLYQPVHLLVGTPGRILDLTKKGVCVLKDCSVLVMDEADKLLSQEFQPSVEHLISFLPESRQILMFSATFPVTVKDFKDRFLTNPYVINLMDELTLKGITQFYAFVEERQKIHCLNTLFSKLQINQSIIFCNSVNRVELLAKKITELGYSCFYIHAKMLQDHRNRVFHDFRNGACRNLVCTDLFTRGIDIQAVNVVINFDFPKNAETYLHRVGRSGRFGHLGLAVNLITYEDRFNLYRIEQELGTEIKQIPPHIDQAIYCQ

binding [2]: binds
B2: UP-…1 (UPF1), Q9FJR0 1-1254 (protein)
chain: MDSQQSDLFDTASQPDTVADEYTFLEFNTQGDSEFDYQDFGSPTAWPTPSDSISIADVADRGEGGAAADHHSEASSPSSLSAGAGNGAKVGRGGVGGSGGVSSSSQVDALAAGVGNLNFEETGDDDGFDYGKNDFTEHACKYCGISNPACVVRCNVASCRKWFCNSRGNTSGSHIVNHLVRAKHKEVCLHRDSPLGETILECYNCGCRNVFLLGFISAKTDSVVVLLCRDPCLNVNALKDMNWDLSQWCPLIDDRCFLPWLVKVPSEQEQLRARQISAQQINKIEELWKTNPDATLEDLEKPGVDDEPQPVQPKYEDAYQYQNVFAPLIKLEADYDKMMKESQSKENLTVRWDIGLNKKRVAYFVFPKEENELRLVPGDELRLRYSGDAVHPSWQSVGHVIKLTAQEEVALELRANQGVPIDVNHGFSVDFVWKSTSFDRMQGAMKNFAVDETSVSGYIYHQLLGHEVEAQMVRNTLPRRFGVPGLPELNASQVNAVKSVLQKPISLIQGPPGTGKTVTSAAIVYHMAKQGQGQVLVCAPSNVAVDQLAEKISATGLKVVRLCAKSREAVSSPVEYLTLHYQVRHLDTSEKSELHKLQQLKDEQGELSSSDEKKYKNLKRATEREITQSADVICCTCVGAADLRLSNFRFRQVLIDESTQATEPECLIPLVLGVKQVVLVGDHCQLGPVIMCKKAARAGLAQSLFERLVTLGIKPIRLQVQYRMHPALSEFPSNSFYEGTLQNGVTIIERQTTGIDFPWPVPNRPMFFYVQLGQEEISASGTSYLNRTEAANVEKLVTAFLKSGVVPSQIGVITPYEGQRAYIVNYMARNGSLRQQLYKEIEVASVDSFQGREKDYIILSCVRSNEHQGIGFLNDPRRLNVALTRARYGIVILGNPKVLSKQPLWNGLLTHYKEHECLVEGPLNNLKQSMVQFQKPRKIYNDRRLFYGGGAGMIGNDNFGSGNPNADRRGSRGRAGGSYLPSGPPNGARPGLHPAGYPIPRVPLSPFPGGPPSQPYAIPTRGPVGAVPHAPQPGNHGFGAGRGTSVGGHLPHQQATQHNVGTIGPSLNFPLDSPNSQPSPGGPLSQPGYGSQAFRDGFSMGGISQDFLADDIKSQGSHDPYNMADFATQASPGGFAVDYATQGAHGAFPGNFMNQNSQGGYSRFSGINDFMSQEYMAHGGQGLFTQAGFIDSSQDDGQQNPYGVNNPNLQSQGLPNSLYSQPFAHYNTQPLNLSGPQQSQPNQSSQNPKHPYNG

binding [1]: binds
B3: RNA helicase RH53 (protein, UniProt Q9LUW5 82-616)
chain: GFAISESSERRVGDSESVGGDGLAISELGISPEIVKALSSKGIEKLFPIQKAVLEPAMEGRDMIGRARTGTGKTLAFGIPIIDKIIKYNAKHGRGRNPLCLVLAPTRELARQVEKEFRESAPSLDTICLYGGTPIGQQMRQLDYGVDVAVGTPGRVIDLMKRGALNLSEVQFVVLDEADQMLQVGFAEDVEIILEKLPEKRQSMMFSATMPSWIRSLTKKYLNNPLTVDLVGDSDQKLADGITTYSIIADSYGRASIIGPLVTEHAKGGKCIVFTQTKRDADRLSYALARSFKCEALHGDISQSQRERTLAGFRDGHFNILVATDVAARGLDVPNVDLIIHYELPNNTETFVHRTGRTGRAGKKGSAILIYSQDQSRAVKIIEREVGSRFTELPSIAVERGSASMFEGIGSRSGGSFGGGMRDRGSSFGGRSGGGGYGGSSGGYGGGRSGGSSNRYSGDSDRSGFGSFGMRSPEGYGSDRSSQSGGRSSFGGGRSGGSSNNRSSGFGDFGSDRSSQSGGRSSFGGFGSNDGKRSY
